# Measured values from paper PMC5996148.
# This is one part of the list.
# Legend:
# Assay in all cases: protein microarray (ProtoArray v5.0), streptavidin-Alexa Fluor 647
# Conditions in all cases: 3'-biotin; 20 mM Tris (pH 7.5), 5 mM MgCl2, 100 mM KCl, 0.1% Tween-20, A/T-rich and random oligonucleotide blockers; temperature not stated; high values mean tight binding
# [1] = test system: DBNDD1 (human)
# [2] = test system: DBNDD2 (human)
# [3] = test system: DC2 (human)
# [4] = test system: DCI (human)
# [5] = test system: DCN1-like protein 1 (human)
# [6] = test system: DCPS (human)
# [7] = test system: DCTD (human)
# [8] = test system: DCTN2 (human)
# [9] = test system: DCTN3 (human)
# [10] = test system: DCUN1D3 (human)
sequence,measurement,setting,value
GGGAGGCTGAGGCAGG [G4-1 biotinylated (PQS2)],binding signal,[1],-0.341 z-score
same,binding signal,[2],-0.356 z-score
same,binding signal,[3],-0.273 z-score
same,binding signal,[4],-0.298 z-score
same,binding signal,[5],-0.335 z-score
same,binding signal,[6],-0.336 z-score
same,binding signal,[7],-0.331 z-score
same,binding signal,[8],-0.356 z-score
same,binding signal,[9],-0.337 z-score
same,binding signal,[10],-0.366 z-score

# Quoted at random: 2 records from the list.
sequence,measurement,setting,value
GGGAGGCTGAGGCAGG [G4-1 biotinylated (PQS2)],binding signal,[5],-0.335 z-score
same,binding signal,[10],-0.366 z-score
